Test results as given in patent publication US8895738B2, “Mesoionic pyrido [1, 2-A] pyrimidine pesticides” (E I du Pont de Nemours and Company, priority 2010, dated 2014).
Counter-ions that a name gives are not always drawn. Some results were stated once for a whole list of compounds, not compound by compound.

Experiments:
[1] = test system: diamondback moth (Plutella xylostella); assay: Test A: control of diamondback moth on radish plant, foliar spray; assay type: in vivo; conditions: assessed after 6 days
[2] = test system: Western Flower Thrips (Frankliniella occidentalis); assay: Test F: control of Western Flower Thrips on Soleil bean plant; assay type: in vivo; conditions: sprayed at 250 ppm; held for 7 days

Question: For “3-(4-chloro-2-fluorophenyl)-2-hydroxy-4-oxo-1-(5-pyrimidinylmethyl)-4H-pyrido[1,2-a]pyrimidinium inner salt [Compound 13]”, which “control efficacy: feeding damage (40% or less feeding damage and/or 100% mortality)” value ([1]; sprayed at 250 ppm) is on record?
Answer: The value was no more than 40%.

Question: Which results are given for O=c1c(-c2ccccc2)c([O-])[n+](Cc2cncnc2)c2ccccn12 [Compound 1, 2-hydroxy-4-oxo-3-phenyl-1-(5-pyrimidinylmethyl)-4H-pyrido[1,2-a]pyrimidinium inner salt]?
Answer: control efficacy: plant damage (30% or less plant damage and/or 100% mortality) [2]: ≤ 30%; control efficacy: feeding damage (40% or less feeding damage and/or 100% mortality) ([1]; sprayed at 50 ppm): ≤ 40%; control efficacy: feeding damage (40% or less feeding damage and/or 100% mortality) ([1]; sprayed at 250 ppm): ≤ 40%

Question: For O=c1c(-c2cccc(C(F)(F)F)c2)c([O-])[n+](Cc2cncnc2)c2ccccn12 [Compound 3, 2-hydroxy-4-oxo-1-(5-pyrimidinylmethyl)-3-[3-(trifluoromethyl)phenyl]-4H-pyrido[1,2-a]pyrimidinium inner salt], which “control efficacy: feeding damage (40% or less feeding damage and/or 100% mortality)” value ([1]; sprayed at 50 ppm) is on record?
Answer: The value was no more than 40%.

Question: What about the “control efficacy: feeding damage (40% or less feeding damage and/or 100% mortality)” value ([1]; sprayed at 250 ppm) of the same compound?
Answer: The value was no more than 40%.

Question: How did the “control efficacy: plant damage (30% or less plant damage and/or 100% mortality)” value [2] turn out when COc1ccccc1-c1c([O-])[n+](Cc2cncnc2)c2ccccn2c1=O [Compound 4, 2-hydroxy-3-(2-methoxyphenyl)-4-oxo-1-(5-pyrimidinylmethyl)-4H-pyrido[1,2-a]pyrimidinium inner salt] was run?
Answer: Its value is no more than 30%.

Question: What about the “control efficacy: feeding damage (40% or less feeding damage and/or 100% mortality)” value ([1]; sprayed at 50 ppm) of the same compound?
Answer: Its value is no more than 40%.

Question: What about the “control efficacy: feeding damage (40% or less feeding damage and/or 100% mortality)” value ([1]; sprayed at 250 ppm) of the same compound?
Answer: The value was no more than 40%.

Question: How did the “control efficacy: feeding damage (40% or less feeding damage and/or 100% mortality)” value ([1]; sprayed at 50 ppm) turn out when COc1cccc(-c2c([O-])[n+](Cc3cncnc3)c3ccccn3c2=O)c1 [Compound 5, 2-hydroxy-3-(3-methoxyphenyl)-4-oxo-1-(5-pyrimidinylmethyl)-4H-pyrido[1,2-a]pyrimidinium inner salt] was run?
Answer: The value was no more than 40%.

Question: How did the “control efficacy: feeding damage (40% or less feeding damage and/or 100% mortality)” value ([1]; sprayed at 10 ppm) turn out when O=c1c(-c2cccc(OC(F)(F)F)c2)c([O-])[n+](Cc2cncnc2)c2ccccn12 [Compound 7, 2-hydroxy-4-oxo-1-(5-pyrimidinylmethyl)-3-[3-(trifluoromethoxy)phenyl]-4H-pyrido[1,2-a]pyrimidinium inner salt] was run?
Answer: Its value is no more than 40%.

Question: What about the “control efficacy: feeding damage (40% or less feeding damage and/or 100% mortality)” value ([1]; sprayed at 250 ppm) of the same compound?
Answer: Its value is no more than 40%.

Question: With O=c1c(-c2cccc(Br)c2)c([O-])[n+](Cc2cncnc2)c2ccccn12 [Compound 8] as the compound, how does the “control efficacy: feeding damage (40% or less feeding damage and/or 100% mortality)” value ([1]; sprayed at 50 ppm) read?
Answer: The value was no more than 40%.

Question: What about the “control efficacy: feeding damage (40% or less feeding damage and/or 100% mortality)” value ([1]; sprayed at 250 ppm) of the same compound?
Answer: Its value is no more than 40%.

Question: How did the “control efficacy: feeding damage (40% or less feeding damage and/or 100% mortality)” value ([1]; sprayed at 10 ppm) turn out when O=c1c(-c2cc(Cl)cc(C(F)(F)F)c2)c([O-])[n+](Cc2cncnc2)c2ccccn12 [Compound 15, 3-[3-chloro-5-(trifluoromethyl)phenyl]-2-hydroxy-4-oxo-1-(5-pyrimidinylmethyl)-4H-pyrido[1,2-a]pyrimidinium inner salt] was run?
Answer: The value was no more than 40%.

Question: What about the “control efficacy: feeding damage (40% or less feeding damage and/or 100% mortality)” value ([1]; sprayed at 250 ppm) of the same compound?
Answer: The value was no more than 40%.

Question: For O=c1c(-c2cc(Cl)cc(Cl)c2)c([O-])[n+](Cc2cncnc2)c2ccccn12 [Compound 16, 3-(3,5-dichlorophenyl)-2-hydroxy-4-oxo-1-(5-pyrimidinylmethyl)-4H-pyrido[1,2-a]pyrimidinium inner salt], which “control efficacy: feeding damage (40% or less feeding damage and/or 100% mortality)” value ([1]; sprayed at 10 ppm) is on record?
Answer: The value was no more than 40%.

Question: With O=c1c(-c2cc(Cl)c(F)c(Cl)c2)c([O-])[n+](Cc2cncnc2)c2ccccn12 [Compound 17, 3-(3,5-dichloro-4-fluorophenyl)-2-hydroxy-4-oxo-1-(5-pyrimidinylmethyl)-4H-pyrido[1,2-a]pyrimidinium inner salt] as the compound, how does the “control efficacy: feeding damage (40% or less feeding damage and/or 100% mortality)” value ([1]; sprayed at 10 ppm) read?
Answer: Its value is no more than 40%.

Question: With O=c1c(-c2cccc(Cl)c2)c([O-])[n+](Cc2cncnc2)c2ccccn12 [Compound 19, 3-(3-chlorophenyl)-2-hydroxy-4-oxo-1-(5-pyrimidinylmethyl)-4H-pyrido[1,2-a]pyrimidinium inner salt] as the compound, how does the “control efficacy: feeding damage (40% or less feeding damage and/or 100% mortality)” value ([1]; sprayed at 50 ppm) read?
Answer: Its value is no more than 40%.
